Experimental data from PubChem BioAssay AID504375 (National Center for Advancing Translational Sciences (NCATS), 2011).
In all, about 1,600 compounds went through this assay and about 25 (2%) were called active. Another 7% or so got no clear call; they are omitted. Calls follow the shape of the dose curve; as a rule, active = well fitted inhibition curve with a large enough effect; inconclusive = small, poorly fitted or top-dose-only effect, or effect the other way; inactive = no such curve, though single readings can be large or run the other way. This is one part of the list.

Chains of the proteins cited; added tags and fusions are not shown.
UniProt Q01196, whole entry, looked up: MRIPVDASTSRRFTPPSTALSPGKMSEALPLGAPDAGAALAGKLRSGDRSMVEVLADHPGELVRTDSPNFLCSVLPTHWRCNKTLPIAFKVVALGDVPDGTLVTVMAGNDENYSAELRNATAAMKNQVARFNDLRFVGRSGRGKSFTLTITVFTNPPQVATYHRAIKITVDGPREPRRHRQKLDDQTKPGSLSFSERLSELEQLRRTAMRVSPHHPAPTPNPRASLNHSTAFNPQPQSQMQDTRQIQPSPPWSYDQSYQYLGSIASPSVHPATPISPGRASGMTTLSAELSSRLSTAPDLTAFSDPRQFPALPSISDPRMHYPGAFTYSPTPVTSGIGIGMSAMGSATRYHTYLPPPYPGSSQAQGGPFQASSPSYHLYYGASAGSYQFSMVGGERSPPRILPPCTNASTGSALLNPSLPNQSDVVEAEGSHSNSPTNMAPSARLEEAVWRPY
UniProt Q13951, whole entry, looked up: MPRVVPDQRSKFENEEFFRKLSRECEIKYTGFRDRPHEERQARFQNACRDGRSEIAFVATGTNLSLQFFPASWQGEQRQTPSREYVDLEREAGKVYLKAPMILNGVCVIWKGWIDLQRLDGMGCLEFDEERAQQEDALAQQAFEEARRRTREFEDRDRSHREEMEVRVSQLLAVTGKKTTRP

These compounds were tested against Runt-related transcription factor 1 (Homo sapiens) + Core-binding factor subunit beta (Homo sapiens) (UniProt Q01196+Q13951) (assay: qHTS Assay for Compounds Blocking the Interaction Between CBF-beta and RUNX1 for the Treatment of Acute Myeloid Leukemia: Hit Validation with Orthogonal Assay). Details: CBFbeta-RUNX1 binding orthogonal assay, biochemical; series mostly up to 41 µM; activity change, negative = inhibition: at the top concentration.
Method in brief: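 This is an orthogonal TR-FRET assay. His6-CBF-beta and biotin-RUNX1 (30 nM each) were preincubated with compound for 30 min, then Tb-anti-His antibody (0.44 ng) and streptavidin-XL665 (5 nM) were added. The signal was read after 90 min.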
% is scaled to controls: 0 for no effect and ±100 for the full control effect.

Activity change, negative = inhibition, inactive:
CCNC(=O)Oc1ccc[nH]c1=O -4.86%
Cc1ccc(/C=N/N2CCN(c3ccccn3)CC2)o1 6.95%
O=C(NNC(=S)NC1CC2C=CC1C2)c1ccncc1 (stereo not given) -0.795%
O=C(CSc1nc2ccccc2n1Cc1ccccc1Cl)N/N=C/c1ccccc1C(=O)O -14.6%
CCOC(=O)[C@H](CCc1ccccc1)N[C@@H](C)C(=O)N1[C@H](C(=O)O)C[C@H]2CCCC[C@@H]21 -2.26% [at 82.4 µM]
O=C(Oc1c(-c2ccccc2)c(=O)n2c3c(cccc13)CC2)c1ccc(Cl)cc1 -14.9%
Cn1nccc1NS(=O)(=O)c1ccc(C(C)(C)C)cc1 -10.9%
CC(/C=N/n1c(-c2ccccn2)n[nH]c1=S)=C\c1ccccc1 -4.6%
Cc1nn(C)cc1/C=N/NC(=O)c1ccco1 7.02%
COc1ccc(C(=O)O)nc1C -10.2%
CCn1c(SCC(=O)N/N=C/c2ccncc2)nc2ccccc21 1.93%
Cc1sc2nc(COC(=O)c3ccc(Cl)c(N)c3)[nH]c(=O)c2c1C -1.95%
CN(C)c1cc(-c2ccc(Br)cc2)oc(=O)c1Cl 20.4%
Cc1ccc(N=CC2=C(O)CC(c3ccccc3Cl)CC2=O)cc1 (stereo not given) -8.6%
CN1c2ccccc2C(=O)/C(=C\Nc2ccc(F)cc2F)S1(=O)=O 1.93%
Cc1oc(S(=O)(=O)N2CCCC2)cc1C(=O)Nc1ccc(F)cc1 0.93%
CCOC(=O)N1CCC(NS(=O)(=O)c2ccc(C)cc2)CC1 -13.3%
O=S(=O)(c1ccc(F)cc1F)N1CCCN(c2ccc(C(F)(F)F)cn2)CC1 5.71%
O=C(O)CCNC(=O)CCCn1nnc2ccccc2c1=O -4.66%
C/C(=N/NC(=O)CNC(=O)Cc1ccccc1)c1ccc(Cl)cc1 -8.37%
CC(C)N(CCn1cnc2c([nH]c3ccccc32)c1=O)C(C)C 7.83%
S=C(N/N=C/c1cccc2ccccc12)Nc1cccc(Cl)c1 -11.2%
CCn1cc(C(c2ccccc2)C(C(C)=O)[N+](=O)[O-])c2ccccc21 (stereo not given) 13.1%
[O-]/[N+](=C\C=C\c1ccccc1)c1ccccc1 10%
O=C1CCCN1CCCNC(=S)Nc1ccccc1 4.48%
CCCOc1ccc(-c2nc(-c3ccc([N+](=O)[O-])cc3)cs2)cc1 -13.2%
CCOc1nc2c(c(-c3cccs3)c1C#N)Cc1ccccc1-2 -7.12%
CCOc1ccc(NC(=O)CSc2ccc(-c3ccccn3)nn2)cc1 11% [at 82.4 µM]
Nc1nc(Nc2ccccc2)nc(NCCO)c1[N+](=O)[O-] 42.1%
COc1ccccc1Cc1nc(-c2cccnc2)no1 7.3%
O=C(O)COCC(=O)N1CCN(C2c3ccccc3-c3ccccc32)CC1 4.03%
CCOc1ccc(N2C(=O)S/C(=C\c3cc(OC)c(OC)c(OC)c3)C2=O)cc1 15%
N#CC(C(=O)c1ccccc1Cl)=C1SCCCS1 21.3%
COc1c(NC(C)=O)c2ccccc2c2ccccc12 9.47%
O=C1CCN(S(=O)(=O)c2ccc(Cl)cc2)CCN1 0.514%
CCOC(=O)C(=CNc1cccnc1Oc1ccc(C)c2c1CCC2)C(=O)OCC -4.69%
CCC(=O)N1N=C(c2ccc(C)cc2)CC1c1ccco1 (stereo not given) -3.02%
COc1ccc(-c2c[n+]3c(n2-c2ccc(C)cc2)CCCCC3)cc1 -8.18%
Cc1ccc(C)c(C(=O)CCC(=O)O)c1 10.9%
O=C(Nc1ccc(Nc2ccncc2)cc1)c1ccc(Nc2ccnc3ccc([N+](=O)[O-])cc23)cc1 -7.13%
c1ccc(-c2nnc(N3CCN(c4ccccc4)CC3)nc2-c2ccccc2)cc1 -7.99%
Cc1ccccc1NC(=S)Nc1ccccn1 -11.9%
CCc1c(-c2ccccc2)[n+](=O)c2c(n1[O-])CCC2 9.26%
CC(C)(C)c1cc(NCc2ccccn2)n2ncc(-c3ccc(Cl)cc3)c2n1 -2.69%
CCC(C)NC(=O)CC(C)C (stereo not given) 0.673%
O=C(Oc1cc(=O)oc2c1c(=O)n1c3c(cccc23)CC1)c1ccc(F)cc1 4.17%
O=C(c1ccc(Cn2cc(Cl)c([N+](=O)[O-])n2)cc1)N1CCN(Cc2ccccc2)CC1 31.6%
c1ccc(-n2ncc3cccnc32)cc1 -6.47%
Nc1ccc(C(=O)Nc2ccc(Nc3ccncc3)cc2)cc1 4.77%
COc1cccc(N/C(=N/C(=S)Nc2ccc(C)cc2C)Nc2nc(C)cc(C)n2)c1 -7.98%
Cc1nn2c(NCCCN(C)C)c3c(nc2c1-c1ccccc1)CCCC3 7.44%
CCCN(CCC)CC(=O)N1CC(=O)Nc2ccccc21 4.55%
COC(=O)c1sccc1NC(=O)CC1C(=O)NCCN1C(=O)c1ccc(C)c(C)c1 (stereo not given) 6.69%
O=C(COc1ccc([N+](=O)[O-])cc1Cl)N1CCOCC1 21.4%
Nn1c(SCC(=O)Nc2ccc(S(N)(=O)=O)cc2)nnc1C(F)(F)F 7.61%
Cc1nc(SCc2cccc(F)c2)c2oc3ccccc3c2n1 -3.14%
O=C(CN1CCN(C(c2ccccc2)c2ccccc2)CC1)N1N=CCC1c1ccccc1 (stereo not given) -8.56%
Cc1onc(-c2c(F)cccc2Cl)c1C(O)c1ccc(F)cc1 (stereo not given) -0.673%
CC(C)(C)c1cc2nc(N)nc(N)n2n1 2.45%
CCOP(=O)(c1ccc(N(C)C)cc1)C(O)c1cccnc1 (stereo not given) 21.3%
Cc1ccc2cc(NC(=O)Cc3ccccc3)ccc2n1 3.06%
CC(=O)c1sc(C(C)(C)C)cc1NC(=O)CCC(=O)O 10.2%
O=C1CCC(c2ccccc2)(c2ccccc2)CC1 11.9%
COC(=O)c1sccc1S(=O)(=O)Nc1ccc(Cl)cc1 -0.807%
Cc1[nH]n(-c2ccccc2)c(=O)c1C=Nc1cccc(F)c1 15.8%
C/C(Cc1ccccc1)=N\NC(=O)CNC(=O)c1ccc(Cl)cc1Cl -5.63%
CNS(=O)(=O)c1cc(Cl)ccc1Sc1ccccc1C(=O)O -9.33%
CCC(=O)NC1(C(F)(F)F)C(=O)Nc2c1c(=O)[nH]c(=O)n2CC(C)C (stereo not given) -5.27%
NC(=O)c1ccc(NC(=O)COC(=O)/C=C/c2ccc3c(c2)OCO3)cc1 21.1%
Cc1ccc(C(=O)/C=C/N(C)C)cn1 3.88%
Cc1nc(N)nc(Nc2ccc(C#N)cc2)c1Br -1.3%
CCCN1CN=C(Nc2nc3ccccc3o2)NC1 5.86%
CSc1ccc(NC(=O)Nc2cc(C)ccn2)cc1 -0.758%
CCCC(=O)Nc1ccc2c(c1)nc(CCNC(=O)c1ccco1)n2C 4.69%
O=C(Nc1ccccc1)N1CCN(C2c3ccccc3-c3ccccc32)CC1 -4.97%

Ordered by SMILES length (ascending): part of the list above
Activity change, negative = inhibition, inactive:
Cc1ccc(C(=O)/C=C/N(C)C)cn1 3.88%
COc1ccc(-c2c[n+]3c(n2-c2ccc(C)cc2)CCCCC3)cc1 -8.18%
COC(=O)c1sccc1NC(=O)CC1C(=O)NCCN1C(=O)c1ccc(C)c(C)c1 (stereo not given) 6.69%
